In PubChem BioAssay AID2685 (National Center for Advancing Translational Sciences (NCATS), 2010):
Several values for one entry are separate records, joined by “and”; a condition that tells them apart may be missing. Equal entries are not always repeated. The list shows a part of the results. Further columns of the screen follow, without active or inactive calls. The list favours compounds with an active or inconclusive main result. Words in brackets tell the shape of the fitted curve; partial curves, single points and poor fits give uncertain potencies.

Assay: qHTS Assay for Lipid Storage Modulators in Drosophila S3 Cells;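 as to cell number change: cells counted by Cell Tracker Red CMTPX staining in the red channel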
Details: BODIPY lipid droplet fluorescence, 18-24 h; for cell number change: measured here: cell count max response, cells fed with added oleic acid
Summary of the method: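 Laser-scanning cytometry quantifies lipid droplet accumulation (500–530 nm total intensity; droplet/cell object ratio) in oleic acid-fed (400 uM added) Drosophila S3 cells treated with a concentration series. 20 uM Triacsin C defined 100% inhibition.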

[1] = measured here: lipid fluorescence (Fed channel) AC50, cells fed with added oleic acid
[2] = measured here: cell number channel AC50, cells fed with added oleic acid

SMILES	cell number change [%]	AC50 [1]	AC50 [2]
N#CC(C#N)=C1c2cc(S(N)(=O)=O)ccc2-c2ccc(S(N)(=O)=O)cc21	-22.6		
COc1ccccc1N1CCN(/N=C\c2ccc(C)o2)CC1	-6.63		
CCc1cccc2c(C(=O)COC(=O)C3=NNC(=O)CC3)c[nH]c12	44.7	29.1 µM [rising, partial curve, poor fit]	
CC(C(=O)NC(N)=O)N1C(=O)NC(c2ccccc2)(c2ccccc2)C1=O (stereo unspecified)	7.14	29.1 µM [rising, single point]	
O=C(Cc1c2ccccc2nc2ccccc12)c1ccccc1	15.8	0.206 µM [rising, full curve]	
O=C(CCCn1c(=S)[nH]c2ccccc2c1=O)N1CCCCC1	15.6		2.31 µM [rising, partial curve, poor fit]
CCCCCCn1c(-c2ccco2)nc2oc3cc(OC)ccc3c(=O)c2c1=O			0.366 µM [rising, full curve, poor fit]
Cc1ccc(-c2nn(-c3ccccc3)cc2CO)cc1	4.96		0.058 µM [falling, partial curve, poor fit]
O=C(Cn1nnc(-c2ccc(Cl)cc2)n1)N1CCN(C(=O)c2ccco2)CC1	14.8		
CCN(CCO)Cc1csc2ccc(C(C)(C)C)cc12	1.22	10.3 µM [falling, partial curve, poor fit]	
COc1ccc(C(=O)O)cc1S(=O)(=O)N1CCN(c2ccccn2)CC1		1.84 µM [falling, partial curve]	
CN1C[C@@H]2C(c3ccccc3)C3(c4ccccc4)CC2(C3)[C@H]1c1ccccc1 (stereo partly specified)	-30.9	14.6 µM [falling, single point]	13 µM [falling, single point]
CCCN1C(=O)/C(=C/c2cc(C)n(C)c2C)SC1=Nc1ccc(OC)cc1	130	29.1 µM [rising, single point]	
O=C(COc1ccc(S(=O)(=O)Nc2ccc(Cl)cc2)cc1)N1CCOCC1	-11.4	1.84 µM [rising, partial curve, poor fit]	
O=C(CSc1nc2[nH]ncc2c(=O)[nH]1)c1ccccc1	30.1	6.51 µM [rising, single point]	7.31 µM [rising, single point]
CC1=C(C(=O)OC2CCCCCCC2)C(c2cc3c(cc2Br)OCO3)CC(=O)N1 (stereo unspecified)	-92.5	29.1 µM [falling, single point]	
COc1ccc(C)cc1NC(=O)Cn1cnc2sc(C)c(S(=O)(=O)N3CCOCC3)c2c1=O	8.06	25.9 µM [falling, single point]	
COc1ccc(CCn2c(=N)c(C(=O)NCC3CCCO3)cc3c(=O)n4cccc(C)c4nc32)cc1OC (stereo unspecified)	-1.79	29.1 µM [falling, single point]	
Cc1cc(NC(=O)CCC(=O)N(c2ccccc2F)C(C(=O)NC2CCCC2)c2ccccc2)no1 (stereo unspecified)	7.83		

Compounds shown so far that have an NH in an aromatic ring, in the order listed:
SMILES	cell number change [%]	AC50 [1]	AC50 [2]
CCc1cccc2c(C(=O)COC(=O)C3=NNC(=O)CC3)c[nH]c12	44.7	29.1 µM [rising, partial curve, poor fit]	
O=C(CCCn1c(=S)[nH]c2ccccc2c1=O)N1CCCCC1	15.6		2.31 µM [rising, partial curve, poor fit]
O=C(CSc1nc2[nH]ncc2c(=O)[nH]1)c1ccccc1	30.1	6.51 µM [rising, single point]	7.31 µM [rising, single point]

Continuation:

SMILES	cell number change [%]	AC50 [1]	AC50 [2]
C=C(C)Cn1c(=S)[nH]c2ccccc2c1=O	27	0.58 µM [rising, full curve]	0.146 µM [rising, full curve]
CCOC(=O)c1c(NC(=S)Nc2ccccc2)sc2c1CCN(C)C2	-24.4	4.61 µM [falling, full curve, poor fit]	
COc1ccc(OCC(=O)N2CCOCC2)cc1	-6.08	3.26 µM [falling, partial curve]	
O=C(Cn1c(COc2ccccc2)nc2ccccc21)Nc1cccc(Cl)c1	-15.1	3.66 µM [falling, single point]	6.51 µM [falling, single point]
O=C(CNC(=O)c1ccc(Cl)cc1Cl)OCc1ccccc1	-17.3		
CCOC(=O)c1ccc(S(=O)(=O)NNC(=O)c2ccc3c(c2)nc(C)n3CC)cc1		18.4 µM [rising, partial curve]	
O=C(NCc1nnc(SCC(=O)N2CCCCCC2)o1)c1ccccc1F	-0.283	0.82 µM [falling, full curve, poor fit]	
O=C(NCCCc1ccccc1)c1ccccc1	24.3	0.651 µM [falling, single point]	
Cc1ccccc1NC(=O)CN1C(=O)NC2(CCc3ccccc32)C1=O (stereo unspecified)	2.88	3.66 µM [falling, full curve]	
Cc1ccc(-n2nc(-c3ccco3)cc2C(=O)O)cc1	11.5	18.4 µM [rising, partial curve, poor fit]	
COC(=O)c1sc(NC(=O)CSc2nncs2)c(C(=O)OC)c1C	34		1.16 µM [rising, full curve]
Brc1cc2c(cc1Cn1c(-c3cncs3)nc3ccccc31)OCO2		2.06 µM [rising, partial curve]	2.06 µM [rising, partial curve]
Oc1ccc2ccccc2c1N=Nc1ccc(F)cc1	-63.8	18.4 µM [falling, single point] and 2.91 µM [falling, full curve]	20.6 µM [falling, single point]
CS(=O)(=O)N1CCc2cc(C(=O)N3CCCC3)ccc21	-27.7	0.731 µM [falling, full curve]	0.291 µM [falling, full curve, poor fit]
O=c1c2ccccc2nc2n1CCN2Cc1ccc(Cl)cc1	30.9	1.46 µM [rising, full curve]	0.651 µM [rising, full curve, poor fit]
COc1ccc(CNS(=O)(=O)c2cc3c4c(c2)C(C)C(=O)N4CCC3)cc1 (stereo unspecified)	-3.05		
COC(=O)c1[nH]c2ccc(Cl)cc2c1NC(=O)CN1CCC(C(N)=O)CC1	-0.259	16.4 µM [rising, partial curve]	
Cc1ccc(/C=N/NC(=O)COc2ccccc2-c2ccccc2)cc1	-32.4	1.16 µM [falling, full curve, poor fit]	29.1 µM [falling, single point]
CNC(=S)Nc1ccc([N+](=O)[O-])cc1	-3.72		

SMILES	cell number change [%]	AC50 [1]	AC50 [2]
CCN(CC(=O)Nc1c(F)cccc1F)C(=O)CNC(=O)c1ccc2ccccc2c1	-3.73	4.11 µM [rising, single point]	
COc1cccc(C(C)NC(=O)C2CCCO2)c1 (stereo unspecified)	26.4	29.1 µM [rising, single point]	
CCOc1ccc(C(=O)/C=C/c2cn(CN3CCN(C)CC3)c3ccccc23)cc1	-38.4	29.1 µM [falling, single point]	23.1 µM [falling, single point]
CN(C)CCNC(=S)Nc1ccc(-c2nc3ccccc3[nH]2)cc1	31	7.31 µM [rising, partial curve]	6.51 µM [rising, partial curve]
CCc1cc(=O)oc2cc(OCC(=O)N3CCCc4ccccc43)ccc12	5.76	18.4 µM [rising, single point]	
O=C(CNC(=O)c1ccccc1F)Nc1ccncc1	-12		
COc1cc(NC(=O)CSc2ccc(-c3cccnc3)nn2)cc(OC)c1	0.348		
CC(=O)c1ccc(S(=O)(=O)N2CCN(C(=O)CN3C(=O)NC4(CCCC4)C3=O)CC2)cc1	2.33	0.326 µM [falling, partial curve, poor fit]	
Cn1c(CN2CCCC2)nc2cc(NC(=O)c3cccs3)ccc21	-0.975	0.164 µM [falling, full curve, poor fit]	
O=C(NCc1ccco1)c1ccc(N2CCCCC2)c([N+](=O)[O-])c1	-0.94	25.9 µM [rising, single point]	
COc1ccc(N2CCN(C(=O)C3CCCN(S(=O)(=O)c4cccc5cccnc45)C3)CC2)cc1 (stereo unspecified)	-1.01	0.146 µM [rising, full curve, poor fit]	0.58 µM [falling, partial curve]
O=C(CCNC(=O)c1ccccc1Cl)Nc1nc(-c2ccccc2Cl)cs1	-33.2	13 µM [falling, single point]	13 µM [falling, single point]
Cc1ccc(C2N(c3ccc(F)cc3)C(=O)C3CCCN32)cc1 (stereo unspecified)	26.2	10.3 µM [rising, partial curve, poor fit]	
Cc1cccc(NC(=O)C2CC(=O)N(c3ccc4c(c3)OCCO4)C2)n1 (stereo unspecified)	-31.1	32.6 µM [falling, single point]	29.1 µM [falling, single point]
CC1CCCCC1NC(=O)C1CCN(S(=O)(=O)N2CCCCCC2)CC1 (stereo unspecified)	-10.7	0.103 µM [falling, full curve, poor fit]	
COc1cc(NC(=O)c2ccccc2Cl)c(OC)cc1NC(=O)CN1CCOCC1	12.2	0.092 µM [rising, full curve, poor fit]	3.26 µM [rising, single point]
CCCCNC(=O)C(=O)N/N=C/c1ccc(C(=O)OC)cc1	-18.4	16.4 µM [falling, partial curve, poor fit]	
CCOc1cc(C2NC(=O)NC(O)(C(F)(F)F)C2C(=O)c2ccccc2)ccc1OC (stereo unspecified)	-125	0.461 µM [falling, single point]	7.31 µM [falling, partial curve]
COc1ccc(OC)c(C2=NS(=O)(=O)N(C)C(C(=O)Nc3ccc(F)cc3F)=C2)c1	-12.2		
